Measured values reported in the supplement of paper PMC10331698.
± gives the standard deviation of the averaged measurements. Most values lie at the level of the controls, where differences are scatter.

How the values were obtained:
Assay in all cases: level (log10 ratio to DMSO vehicle control); higher = higher biomarker level / cell amount than vehicle control
Perfluoroheptanoic acid = compound: O=C(O)C(F)(F)C(F)(F)C(F)(F)C(F)(F)C(F)(F)C(F)(F)F [Perfluoroheptanoic acid]; settings: in DMSO
Experimental: (§1)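 BioMAP Diversity Plus panel of 12 human primary cell co-culture systems (3C, 4H, LPS, SAg, BT, BF4T, BE3C, CASM3C, HDF3CGF, KF3CT, MyoF, Mphg). Compounds were added 1 h before stimulation and left for 24 h (MyoF 48 h; BT 72 h for soluble read-outs or 6 d for IgG). Biomarkers were read by ELISA, cytotoxicity by SRB, PBMC viability and proliferation by Alamar Blue. Each well value was divided by the mean of 8 DMSO control wells on the same plate and log10 transformed; duplicate blinded samples were tested at 4 concentrations.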

[1] = compound: FC(F)(F)C(F)(F)C(F)(F)C(F)(F)C(F)(F)C(F)(F)CC1CO1 [3-(Perfluorohexyl)-1,2-epoxypropane]; settings: 2200 nM; in DMSO
Experimental: as §1

[2] = compound: NCC(F)(F)C(F)(F)C(F)(F)C(F)(F)C(F)(F)C(F)(F)C(F)(F)F [1H,1H-Perfluorooctylamine]; settings: 2200 nM; in DMSO
Experimental: as §1

1-(Perfluorohexyl)octane = compound: CCCCCCCCC(F)(F)C(F)(F)C(F)(F)C(F)(F)C(F)(F)C(F)(F)F [1-(Perfluorohexyl)octane]; settings: in DMSO
Experimental: as §1

[3] = compound: Cc1ccc(S(=O)(=O)OCC(F)(F)C(F)(F)C(F)(F)C(F)(F)C(F)(F)C(F)F)cc1 [1H,1H,7H-Perfluoroheptyl 4-methylbenzenesulfonate]; settings: 2200 nM; in DMSO
Experimental: as §1

[4] = compound: CCN(CCO)S(=O)(=O)C(F)(F)C(F)(F)C(F)(F)C(F)(F)C(F)(F)C(F)(F)C(F)(F)C(F)(F)F [N-Ethyl-N-(2-hydroxyethyl)perfluorooctanesulfonamide]; settings: in DMSO
Experimental: as §1

1H,1H-Heptafluorobutanol = compound: OCC(F)(F)C(F)(F)C(F)(F)F [1H,1H-Heptafluorobutanol]; settings: 2200 nM; in DMSO
Experimental: as §1

Octafluoroadipic acid = compound: O=C(O)C(F)(F)C(F)(F)C(F)(F)C(F)(F)C(=O)O [Octafluoroadipic acid]; settings: 2200 nM; in DMSO
Experimental: as §1

Heptafluorobutyramide = compound: NC(=O)C(F)(F)C(F)(F)C(F)(F)F [Heptafluorobutyramide]; settings: 2200 nM; in DMSO
Experimental: as §1

[5] = compound: O=S(=O)(O)CCC(F)(F)C(F)(F)C(F)(F)C(F)(F)C(F)(F)C(F)(F)C(F)(F)C(F)(F)F [8:2 Fluorotelomer sulfonic acid]; settings: in DMSO
Experimental: as §1

[6] = compound: O=C(O)C(F)(F)C(F)(F)C(F)(F)C(F)(F)C(F)(F)C(F)(F)C(F)(F)C(F)(F)C(F)(F)C(F)F [11-H-Perfluoroundecanoic acid]; settings: 2200 nM; in DMSO
Experimental: as §1

[7] = compound: O=C(O)C(F)(F)C(F)(F)C(F)(F)OC(F)(F)F [Perfluoro(4-methoxybutanoic) acid]; settings: 2200 nM; in DMSO
Experimental: as §1

[8] = compound: OCCC(F)(F)C(F)(F)C(F)(F)C(F)(F)C(F)(F)C(F)(F)F [6:2 Fluorotelomer alcohol]; settings: 2200 nM; in DMSO
Experimental: as §1

Perfluoropentanoic acid = compound: O=C(O)C(F)(F)C(F)(F)C(F)(F)C(F)(F)F [Perfluoropentanoic acid]; settings: in DMSO
Experimental: as §1

[9] = compound: CN(C(=O)C(F)(F)C(F)(F)C(F)(F)F)[Si](C)(C)C [N-Methyl-N-trimethylsilylheptafluorobutyramide]; settings: 2200 nM; in DMSO
Experimental: as §1

[10] = compound: CC(C)(C)C(=O)CC(=O)C(F)(F)C(F)(F)C(F)(F)F [(Heptafluorobutanoyl)pivaloylmethane]; settings: 2200 nM; in DMSO
Experimental: as §1

Test System	level (log10) (Perfluoroheptanoic acid; 2200 nM)	level (log10) (Perfluoroheptanoic acid; 6700 nM)	level (log10) (Perfluoroheptanoic acid; 20000 nM)	level (log10) (Perfluoroheptanoic acid; 60000 nM)	level (log10) [1]	level (log10) [2]	level (log10) (1-(Perfluorohexyl)octane; 740 nM)	level (log10) (1-(Perfluorohexyl)octane; 2200 nM)	level (log10) [3]	level (log10) ([4]; 2200 nM)	level (log10) ([4]; 6700 nM)	level (log10) ([4]; 20000 nM)	level (log10) (1H,1H-Heptafluorobutanol)	level (log10) (Octafluoroadipic acid)	level (log10) (Heptafluorobutyramide)	level (log10) ([5]; 2200 nM)	level (log10) ([5]; 6700 nM)	level (log10) ([5]; 20000 nM)	level (log10) ([5]; 60000 nM)	level (log10) [6]	level (log10) [7]	level (log10) [8]	level (log10) (Perfluoropentanoic acid; 2200 nM)	level (log10) (Perfluoropentanoic acid; 6700 nM)	level (log10) (Perfluoropentanoic acid; 20000 nM)	level (log10) (Perfluoropentanoic acid; 60000 nM)	level (log10) [9]	level (log10) [10]
MyoF:TIMP-1	0.0085 ± 0.042	-0.011 ± 0.0042	0.0225 ± 0.0021	0.0515 ± 0.0064	0.014 ± 0.027	-0.004 ± 0.0071	-0.002 ± 0.0028	-0.0245 ± 0.0021	0.0045 ± 0.016	-0.0425 ± 0.029	-0.112 ± 0.011	-0.0885 ± 0.0092	0.0035 ± 0.036	-0.0425 ± 0.063	-0.0515 ± 0.077	-0.0315 ± 0.016	-0.0185 ± 0.0035	0.0095 ± 0.021	-0.008 ± 0.018	0.0205 ± 0.018	-0.045 ± 0.067	0.0065 ± 0.021	-0.037 ± 0.017	-0.0195 ± 0.023	-0.043 ± 0.034	-0.002 ± 0.042	-0.003 ± 0.037	0.0235 ± 0.054
MyoF:alpha-SM Actin	-0.0275 ± 0.023	-0.028 ± 0.035	-0.0365 ± 0.022	-0.022 ± 0.024	0.0375 ± 0.018	0.0005 ± 0.023	-0.0035 ± 0.021	0.0065 ± 0.015	-0.006 ± 0.0028	0.0135 ± 0.043	0.0845 ± 0.023	-0.235 ± 0.057	0.0335 ± 0.005	0.0185 ± 0.012	0.008 ± 0.025	-0.0125 ± 0.11	0.034 ± 0.02	0.001 ± 0.014	-0.0125 ± 0.025	0.002 ± 0.045	-0.0005 ± 0.0021	0.0025 ± 0.022	0.0215 ± 0.047	0.0265 ± 0.07	0.0355 ± 0.052	0.0485 ± 0.044	0.0085 ± 0.028	0.0255 ± 0.047
MyoF:bFGF	0.0085 ± 0.04	-0.029 ± 0.0085	-0.0255 ± 0.013	-0.0075 ± 0.0021	0.027 ± 0.034	0.0045 ± 0.032	0.002 ± 0.0057	0.0055 ± 0.012	0.0015 ± 0.0092	0.0105 ± 0.025	-0.01 ± 0.016	-0.025 ± 0.0042	-0.001 ± 0.016	0.011 ± 0.016	-0.004 ± 0.023	0.017 ± 0.028	0.0045 ± 0.012	0.006 ± 0.023	0.0265 ± 0.0021	0.0005 ± 0.0092	0.0035 ± 0.00071	-0.001 ± 0.017	-0.0145 ± 0.018	-0.021 ± 0.0014	-0.0085 ± 0.0078	-0.0055 ± 0.0035	0.011 ± 0.024	-0.002 ± 0.016
SAg:CCL2/MCP-1	0.01 ± 0.0014	-0.013 ± 0.0085	0.0215 ± 0.011	0.0215 ± 0.013	-0.0025 ± 0.013	-0.0195 ± 0.0035	-0.0025 ± 0.042	-0.011 ± 0.0014	0.0085 ± 0.029	-0.017 ± 0.0014	-0.0055 ± 0.005	-0.091 ± 0.023	0.0195 ± 0.0092	0.0105 ± 0.044	0.012 ± 0.03	0.018 ± 0.0057	-0.0035 ± 0.019	0 ± 0.0099	-0.0025 ± 0.0078	0.0065 ± 0.033	0.0295 ± 0.032	0.0135 ± 0.032	-0.003 ± 0.023	0.0085 ± 0.021	-0.0205 ± 0.011	0.023 ± 0.031	0.001 ± 0.034	0.0015 ± 0.03
SAg:CD38	-0.0035 ± 0.018	-0.02 ± 0.0042	-0.001 ± 0.0057	-0.0225 ± 0.03	0.01 ± 0.017	-0.0075 ± 0.032	0.0105 ± 0.046	0.002 ± 0.027	0.013 ± 0.021	-0.0025 ± 0.036	-0.027 ± 0.017	-0.0955 ± 0.012	-0.0025 ± 0.07	-0.023 ± 0.04	-0.017 ± 0.017	0.008 ± 0.033	-0.0175 ± 0.04	-0.02 ± 0.034	-0.0595 ± 0.053	0.0015 ± 0.044	-0.01 ± 0.016	0.012 ± 0.021	-0.0115 ± 0.019	0.003 ± 0.017	0.0015 ± 0.011	0.002 ± 0.0057	0.015 ± 0.048	0.057 ± 0.071
SAg:CD40	-0.009 ± 0.016	-0.015 ± 0.027	-0.006 ± 0.0028	-0.021 ± 0.018	-0.0095 ± 0.012	-0.011 ± 0.02	-0.0395 ± 0.018	-0.0155 ± 0.0064	-0.029 ± 0.0071	-0.0105 ± 0.0092	0 ± 0.028	-0.052 ± 0.023	0.0025 ± 0.015	-0.0145 ± 0.005	-0.0075 ± 0.015	-0.015 ± 0.047	-0.013 ± 0.051	-0.0215 ± 0.021	-0.071 ± 0.051	-0.003 ± 0.021	-0.011 ± 0.0099	-0.0015 ± 0.013	-0.007 ± 0.021	0.0105 ± 0.005	0.0025 ± 0.0064	-0.001 ± 0.025	-0.036 ± 0.034	0.017 ± 0.064
SAg:CD62E/E-Selectin	0.0135 ± 0.0021	-0.025 ± 0.0085	0.011	0.008 ± 0.013	0.0005 ± 0.037	0.002 ± 0.062	-0.003 ± 0.0085	0 ± 0.0071	0.01 ± 0.014	-0.0035 ± 0.0021	0.0625 ± 0.013	0.079 ± 0.016	0.0075 ± 0.035	0 ± 0.038	-0.002 ± 0.013	0.018 ± 0.042	0.0085 ± 0.042	0.0465 ± 0.013	0.109 ± 0.0042	-0.002 ± 0.047	0.009 ± 0.0071	0.0055 ± 0.0064	-0.0035 ± 0.013	0.0005 ± 0.0064	-0.012 ± 0.013	0.0195 ± 0.025	-0.0005 ± 0.025	-0.013 ± 0.017
SAg:CD69	-0.0155 ± 0.012	-0.006 ± 0.0014	-0.0145 ± 0.0021	-0.008 ± 0.017	0.001 ± 0.0042	-0.0125 ± 0.019	-0.011 ± 0.033	-0.025 ± 0.033	0.015 ± 0.047	0.007 ± 0.021	-0.043 ± 0.016	-0.085 ± 0.04	-0.0115 ± 0.022	0.0325 ± 0.081	0.039 ± 0.0099	-0.012 ± 0.051	-0.025 ± 0.057	-0.0205 ± 0.04	-0.043 ± 0.075	0.016 ± 0.041	0.031 ± 0.081	-0.001 ± 0.027	0.0095 ± 0.015	0.002 ± 0.016	-0.0155 ± 0.028	-0.0165 ± 0.033	-0.002 ± 0.04	-0.0085 ± 0.042
SAg:CXCL8/IL-8	0.0335 ± 0.00071	0.008 ± 0.011	0.0115 ± 0.0078	0.0715 ± 0.043	0.0075 ± 0.022	0.0005 ± 0.053	0.0065 ± 0.046	0.0045 ± 0.016	0.017 ± 0.04	0.038 ± 0.047	0.0095 ± 0.025	-0.167 ± 0.03	0.0405 ± 0.063	0.023 ± 0.031	0.027 ± 0.04	-0.013 ± 0.05	-0.0075 ± 0.076	-0.009 ± 0.014	0.071 ± 0.044	0.029 ± 0.041	0.0295 ± 0.013	0.0235 ± 0.049	0.014 ± 0.035	-0.012 ± 0.041	-0.018 ± 0.044	-0.013 ± 0.088	-0.006 ± 0.034	-0.031 ± 0.16

Only level (log10) [3], level (log10) (Heptafluorobutyramide) and level (log10) (Perfluoroheptanoic acid; 60000 nM) (two entries from above):
Test System	level (log10) [3]	level (log10) (Heptafluorobutyramide)	level (log10) (Perfluoroheptanoic acid; 60000 nM)
MyoF:bFGF	0.0015 ± 0.0092	-0.004 ± 0.023	-0.0075 ± 0.0021
SAg:CCL2/MCP-1	0.0085 ± 0.029	0.012 ± 0.03	0.0215 ± 0.013
